# Measurements from article PMC4504036.
# Protein sequences, listed by entry. Tags and fused reporters are not part of them. Residues count along the entry.
# UniProt P55058, residues 18-493: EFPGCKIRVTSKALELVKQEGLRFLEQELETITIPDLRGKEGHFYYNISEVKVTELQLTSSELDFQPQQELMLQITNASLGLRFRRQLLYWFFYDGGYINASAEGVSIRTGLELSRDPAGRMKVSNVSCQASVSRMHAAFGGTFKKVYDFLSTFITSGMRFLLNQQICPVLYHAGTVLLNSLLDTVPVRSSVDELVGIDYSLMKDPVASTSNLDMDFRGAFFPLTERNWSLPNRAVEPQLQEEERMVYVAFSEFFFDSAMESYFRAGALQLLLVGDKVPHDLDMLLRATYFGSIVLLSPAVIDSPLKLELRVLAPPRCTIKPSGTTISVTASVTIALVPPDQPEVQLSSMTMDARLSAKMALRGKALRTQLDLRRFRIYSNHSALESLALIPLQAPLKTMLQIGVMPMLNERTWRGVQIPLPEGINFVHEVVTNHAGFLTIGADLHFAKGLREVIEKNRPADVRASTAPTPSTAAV
# UniProt P03951, residues 19-625: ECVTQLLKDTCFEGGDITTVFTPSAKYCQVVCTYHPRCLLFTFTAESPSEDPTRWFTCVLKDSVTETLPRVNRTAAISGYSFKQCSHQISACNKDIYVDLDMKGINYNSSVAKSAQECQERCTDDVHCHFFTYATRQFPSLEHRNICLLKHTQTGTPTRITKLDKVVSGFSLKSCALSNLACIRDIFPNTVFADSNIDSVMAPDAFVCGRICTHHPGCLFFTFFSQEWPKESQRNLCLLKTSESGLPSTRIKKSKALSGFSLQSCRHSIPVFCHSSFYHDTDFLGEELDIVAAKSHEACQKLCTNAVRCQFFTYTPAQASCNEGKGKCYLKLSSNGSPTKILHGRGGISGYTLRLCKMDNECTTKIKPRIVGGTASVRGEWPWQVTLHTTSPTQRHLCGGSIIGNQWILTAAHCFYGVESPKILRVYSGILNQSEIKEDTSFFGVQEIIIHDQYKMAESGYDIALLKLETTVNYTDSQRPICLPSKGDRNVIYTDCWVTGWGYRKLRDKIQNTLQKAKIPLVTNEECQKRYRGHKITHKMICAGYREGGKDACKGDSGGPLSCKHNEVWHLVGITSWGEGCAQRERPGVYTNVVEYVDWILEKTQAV
# No constants are given. Whether binding was seen depends on the method and setting.
# Target: Recombinant wild-type phospholipid transfer protein (rPLTP) (human) (UniProt P55058)
# Experiment: SPR; BIAcore 3000; rPLTP with C-terminal His-tag captured on anti-His tag monoclonal antibody immobilised on a CM5 chip; factor XII (0-750 nM) or factor XI injected; 50 mM Hepes, 150 mM NaCl, 5 mM CaCl2, pH 7.4; global fit, simple Langmuir model; apparent Kd; both purified
substance,measurement,value
Factor XI (from UniProt P03951 19-625),binding,no binding (tested: up to 500 nM)
